Results reported in article PMC5663958, “DNA Ligase C and Prim-PolC participate in base excision repair in mycobacteria” (Nature Communications, 2017).
These are yes or no findings as the source states them, for the method shown. Some binding calls cover weakened binding; strength is not graded here. Tags and fused reporters may be left off the sequences shown.

Biological target: T1, PolD2, recombinant (M. smegmatis) (UniProt A0QQ21)
T1 sequence: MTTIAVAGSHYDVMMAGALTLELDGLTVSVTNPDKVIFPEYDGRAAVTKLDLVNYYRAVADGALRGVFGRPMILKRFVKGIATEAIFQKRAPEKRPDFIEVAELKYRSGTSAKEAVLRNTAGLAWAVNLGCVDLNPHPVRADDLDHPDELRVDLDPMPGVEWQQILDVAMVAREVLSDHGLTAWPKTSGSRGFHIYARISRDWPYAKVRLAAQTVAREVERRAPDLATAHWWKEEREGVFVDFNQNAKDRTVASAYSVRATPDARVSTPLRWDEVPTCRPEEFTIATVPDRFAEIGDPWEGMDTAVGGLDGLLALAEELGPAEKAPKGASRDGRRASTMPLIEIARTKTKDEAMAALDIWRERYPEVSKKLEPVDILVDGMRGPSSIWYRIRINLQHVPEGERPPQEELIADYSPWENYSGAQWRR
Assay: far-Western, overlay or dot blot; recombinant proteins slot-blotted on a membrane (3 μg of the possible interactors, 50 ng of the probed protein), blocked in TBS, 0.05% Tween 20, 5% milk; incubated with 5 μg ml^−1 Prim-PolC or LigC1; detected with Prim-PolC- or LigC1-specific antibodies; both purified

B1: DNA ligase C1 (LigC1, msmeg_6302), recombinant, His-tagged construct (enzyme, UniProt A0R5T2 1-348)
chain: MDLPVQPPIEPMLAKAQVKVPDEAGVWSYEPKWDGFRALVFRDGDDVVLQSRNGKDLGRYFPELLDALRDELVEKCVLDGEVVVPRDIAGRVRLDWESLSQRIHPAASRIKMLAEQTPAHFIGFDALALGDRSLLKEPFRVRREALAEAVDNKRWCHVTRTSEDPALGTEWLKTFEGAGLDGVIAKRLDGPYLPGKREMVKVKHHRDADCVAMGYRIHKSGDGIGSILLGLYRDDGELQMVGGAASFTAKDRIKLLAELEPLREGDEMREGDPSRWNSAADKRWTPLRPEKVCEVAYDQMEGNSVEGRRFRHAVKFLRWRPDREPSSCTFDQLDTPLNYDLYDVLEEQ
B1 was tested, and the binding was “binds”.
